This list was built around the results that the source calls inconclusive (neither active nor inactive); the mix of calls is not that of the screen. Potencies of inconclusive entries are doubtful fits and often do not repeat. Activity calls are given as the source filed them. Calls follow the shape of the dose curve; as a rule, active = well fitted cell-killing curve with a large enough effect; inconclusive = small, poorly fitted or top-dose-only effect, or effect the other way; inactive = no such curve, though single readings can be large or run the other way.
Assay: Quantitative High-Throughput drug screen in 47 multiple myeloma cell lines against the NCATS MIPE library collection: KMM1_JCRB cell viability assay (AID 1918960); also: nearly all actives have a fitted effect of over 30% in size
Settings: KMM1 myeloma viability, CellTiter-Glo ATP luminescence, 48 h; viability (% of DMSO): at 45.8 µM (top of the series)
Outline: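 Myeloma cells, 500 per well, were exposed to MIPE 4.0 drugs by pin transfer for 48 h at 37 °C, 5% CO2. Viability was read as ATP luminescence with CellTiter-Glo, normalised to DMSO-only (100%) and medium-only (0%) wells.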
Potency is read from the fitted curve at half-maximal effect.

SMILES | viability (% of DMSO) | Potency
O=C(O)c1cccnc1 | inactive: 102% | 
CCC(=O)O[C@]1(C(=O)SCF)[C@H](C)C[C@H]2[C@@H]3C[C@H](F)C4=CC(=O)C=C[C@]4(C)[C@@]3(F)[C@@H](O)C[C@@]21C | inactive: 66.4% | 
C[C@@H]1CC(=O)NN=C1c1ccc(NN=C(C#N)C#N)cc1 | inactive: 82% | 
O=c1[nH]cnc2[nH]ncc12 |  | inconclusive: 20900 nM [cytotoxic, partial curve]
COc1nc(C)nc(Cl)c1NC1=NCCN1 |  | inconclusive: 1 nM
O=C1C(CCC(O)c2ccc(F)cc2)C(c2ccc(O)cc2)N1c1ccc(F)cc1 (stereo not given) |  | inconclusive: 10500 nM [cytotoxic, full curve, poor fit]
Cc1cnc(Nc2ccc(N3CCN(C)CC3)cc2)nc1Nc1cccc(S(=O)(=O)NC(C)(C)C)c1 |  | active: 1660 nM
CCn1c(-c2nonc2N)nc2c(C#CC(C)(C)O)ncc(OC[C@H]3CCCNC3)c21 |  | inconclusive: 148 nM [cytotoxic, full curve]
N#CC(=C1Nc2ccccc2S1)c1ccnc(OCc2ccc(CN3CCOCC3)cc2)n1 |  | active: 74.3 nM
CC(C)(N)C(=O)N[C@H](COCc1ccccc1)C(=O)N1CCC2(CC1)CN(S(C)(=O)=O)c1ccccc12 | inactive: 103% | 

Quoted from the listing.
Potency with `Cc1cnc(Nc2ccc(N3CCN(C)CC3)cc2)nc1Nc1cccc(S(=O)(=O)NC(C)(C)C)c1` reads active: 1660 nM
viability (% of DMSO) with `O=C(O)c1cccnc1` reads inactive: 102%

From PubChem BioAssay (NCATS)
